This passage reports binding results from article PMC7794362, “Structural basis for distinct inflammasome complex assembly by human NLRP1 and CARD8” (Nature Communications, 2021).

Assay [1] concerns the target mCherry-tagged NLRP1-FIIND^UPA-CARD (human) (UniProt Q9C000). Briefly: native gel or EMSA; blue-native PAGE blot of mCherry-tagged NLRP1 constructs expressed in HEK293T cells at limiting, comparable expression levels. (A gel shift assay detects complexes by their altered migration in electrophoresis.)
Assay [2] concerns the target NLRP1 full-length FIIND-CARD (FIIND^fl-CARD) (human) (UniProt Q9C000). As to the kind of experiment: negative stain EM; purified recombinant fragments; diluted to 0.01-0.05 mg/ml immediately before grid preparation; T12 120 keV microscope; both purified.

These are yes or no findings as the source states them, for the method shown. Some results given as binding are weak or reduced against the parent protein; the word gives no strength. For some assays here: Sequences can lack the tags named with a protein.

B1: recombinant NLRP1-FIIND^UPA-CARD (a.a. 1213-1473), bacteria-derived (domain or fragment, human, UniProt Q9C000 1213-1473, looked up)
chain: SPLGVLLKMIHNALRFIPVTSVVLLYHRVHPEEVTFHLYLIPSDCSIRKAIDDLEMKFQFVRIHKPPPLTPLYMGCRYTVSGSGSGMLEILPKELELCYRSPGEDQLFSEFYVGHLGSGIRLQVKDKKDETLVWEALVKPGDLMPATTLIPPARIAVPSPLDAPQLLHFVDQYREQLIARVTSVEVVLDKLHGQVLSQEQYERVLAENTRPSQMRKLFSLSQSWDRKCKDGLYQALKETHPHLIMELWEKGSKKGLLPLSS
notes: C-terminal auto-cleavage fragment (FIIND^UPA-CARD) of human NLRP1, a.a; 1213-1473; also called NLRP1-FIIND^UPA-CARD filaments; SNAP-NLRP1-FIIND^UPA-CARD
Regarding B1, the binding result in assay [1] is on record as “binds”.

B2: NLRP1 full-length FIIND-CARD (FIIND^fl-CARD) (domain or fragment, UniProt Q9C000 985-1473)
chain: SRRKPSVMTPTEGLDTGEMSNSTSSLKRQRLGSERAASHVAQANLKLLDVSKIFPIAEIAEESSPEVVPVELLCVPSPASQGDLHTKPLGTDDDFWGPTGPVATEVVDKEKNLYRVHFPVAGSYRWPNTGLCFVMREAVTVEIEFCVWDQFLGEINPQHSWMVAGPLLDIKAEPGAVEAVHLPHFVALQGGHVDTSLFQMAHFKEEGMLLEKPARVELHHIVLENPSFSPLGVLLKMIHNALRFIPVTSVVLLYHRVHPEEVTFHLYLIPSDCSIRKAIDDLEMKFQFVRIHKPPPLTPLYMGCRYTVSGSGSGMLEILPKELELCYRSPGEDQLFSEFYVGHLGSGIRLQVKDKKDETLVWEALVKPGDLMPATTLIPPARIAVPSPLDAPQLLHFVDQYREQLIARVTSVEVVLDKLHGQVLSQEQYERVLAENTRPSQMRKLFSLSQSWDRKCKDGLYQALKETHPHLIMELWEKGSKKGLLPLSS
B2: the binding entry in assay [2] is listed as “no binding”.
